Measured values from PubChem BioAssay AID2099 (Broad Institute, 2009).
The whole screen tested about 330,000 compounds, of which about 230 (0.07%) were called active. Inconclusive means that the source gave no clear call. Such entries were picked first, then a sample of the others.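 The calls were made as follows: active = more than half of a compound's replicate wells show inhibition beyond 50%, single wells judged on their own value; inconclusive = some, but no more than half, of replicates pass 50% inhibition; inactive = no replicate passes 50% inhibition.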

By UniProt entry, the sequences of proteins in these tests, tags left out. Residues count along the entry.
UniProt Q9H3R0, 1-420 limits assumed: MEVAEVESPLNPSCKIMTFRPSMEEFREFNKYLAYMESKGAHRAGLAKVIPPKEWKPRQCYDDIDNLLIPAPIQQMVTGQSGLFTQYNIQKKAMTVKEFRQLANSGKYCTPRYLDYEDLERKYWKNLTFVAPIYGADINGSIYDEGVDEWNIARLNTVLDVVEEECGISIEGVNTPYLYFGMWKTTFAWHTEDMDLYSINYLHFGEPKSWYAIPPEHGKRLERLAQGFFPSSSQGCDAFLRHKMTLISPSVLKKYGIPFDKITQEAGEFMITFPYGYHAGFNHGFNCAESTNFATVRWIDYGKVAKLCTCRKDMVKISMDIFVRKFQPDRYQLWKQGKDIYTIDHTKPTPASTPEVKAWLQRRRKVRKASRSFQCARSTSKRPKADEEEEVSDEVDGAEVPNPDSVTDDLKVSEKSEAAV

These compounds were tested against Lysine-specific demethylase 4C (Homo sapiens) (UniProt Q9H3R0) (assay: inhibitors of GASC-1 histone demethylase, primary screen, biochemical, fluorescence, DELFIA europium (AID 2099;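 also: signal counts dimethyl H3K9 product captured on neutravidin plate; 0% = median of DMSO wells and 100% = 0.3 times that DMSO median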)). Settings: GST-JMJD2C(1-420) H3K9me3 demethylation, at 2.35 µM, hits give high values.

Row | SMILES | inhibition
1 | O=C(CCN1C(=O)[C@H]2CC=CC[C@H]2C1=O)NCc1nc(-c2ccc(Cl)cc2)no1 | inconclusive: -100%
2 | CC(C)(C)OC(=O)NCCc1n[nH]c(=S)o1 | inactive: -19.9%
3 | N#Cc1cc([N+](=O)[O-])ccc1NC(=O)COC(=O)CC1CCCC1 | inconclusive: -99.7%
4 | COc1ccc(Br)cc1CN(C)CC(=O)NCc1ccc(F)cc1 | active: 52.7%
5 | S=c1nc2ccccc2c2nc(-c3ccccc3Br)[nH]n12 | inconclusive: -55.2%
6 | CC(=O)N1CCC(C(=O)Nc2ccc3c(c2)CCC3)CC1 | inconclusive: -61.3%
7 | CCC(C)c1ccccc1N1CC(C(=O)NCCCn2nc(C)cc2C)CC1=O (stereo not given) | inactive: 5.94%
8 | CCc1ccccc1NNC(=O)c1snnc1C | inactive: 15.1%
9 | COc1ccc(C)cc1NC(=O)COC(=O)CCC(=O)c1cccs1 | inactive: 9.13%
10 | Oc1c(Br)cc2oc3c(c2c1CNCc1ccccc1)CCCC3 | inactive: 12.1%
11 | CCCCOc1ccc(CSc2nnc(C)n2N)cc1[N+](=O)[O-] | inactive: 9.56%
12 | CCc1noc(C)c1C(=O)Nc1ccc(Cl)c(S(=O)(=O)N2CCCCC2)c1 | inactive: 74.7%
13 | O=C(CN(CCCN1CCOCC1)C(=O)Cn1nnc(-c2ccc(F)cc2)n1)NC1CCCCC1 | inactive: 0.57%
14 | CCN1CCN(c2cc3c(cc2F)c(=O)c(C(=O)O)cn3C2CC2)CC1 | inconclusive: -30.3%
15 | O=C1N(CN2CCC3(CC2)OCCO3)c2ccccc2C12OCCCO2 | inconclusive: -188%
16 | Cc1ccc(S(=O)(=O)N2CCOC2CNC(=O)C(=O)NCCc2ccc(S(N)(=O)=O)cc2)cc1 (stereo not given) | active: 60.6%
17 | C#CCOCCOCCOCCNc1nc(N2CCN(C(=O)CCCCCCCCCCNC(=O)Cn3cc(C[C@@H](C)O)nn3)CC2)nc(N2CCN(C(=O)CCCCCCCCCCNC(=O)[C@H](CO)n3cc(CCCSC)nn3)CC2)n1 | inactive: -5.9%
18 | CCC(C)Sc1ccc([C@H]2N[C@@](CC(C)C)(C(=O)OC)[C@H]3C(=O)N(C)C(=O)[C@@H]23)cc1 (stereo not given in full) | inconclusive: -463%
19 | COc1ccc(S(=O)(=O)Nc2ccc3c(c2)C(=O)N([C@H](C)CO)C[C@H](C)[C@H](CN(C)Cc2ccc(C(=O)O)cc2)O3)cc1 | active: 50.9%
20 | COCCCn1c(SCc2nc3ccccc3c(=O)[nH]2)nc2ccccc2c1=O | inconclusive: -86.1%
21 | C=CCNC(=O)C1CC(=O)N(c2ccc(OCC(=O)Nc3ccc(CC)cc3)cc2)C1 (stereo not given) | inconclusive: -50.2%
22 | CCc1ccc(C(C)NC(=O)c2ccncc2)cc1 (stereo not given) | inactive: -1.34%
23 | CC1=NNC(=O)C1Cc1ccccc1C (stereo not given) | inconclusive: -53.5%
24 | Cc1cc(OC(C)C(=O)NCc2ccccn2)c2c(C)c(C)c(=O)oc2c1 (stereo not given) | inconclusive: -58.4%
25 | CCCCn1c(N)c(N(CCOC)C(=O)c2cccc(S(=O)(=O)N3CCCCC3)c2)c(=O)[nH]c1=O | inconclusive: -76.4%
26 | Cc1cc(-c2ccc(C)c(S(=O)(=O)N3CCN(c4ccc([N+](=O)[O-])cc4)CC3)c2)on1 | inactive: 8.58%
27 | CC(C)c1onc(C(=O)N2CCN(c3ccc(F)cc3)CC2)c1[N+](=O)[O-] | inconclusive: -50.3%
28 | CN1C(C)(C)c2ccccc2OS1(=O)=O | inconclusive: -391%

Row | SMILES | inhibition
29 | CCOC(=O)c1cnc(-n2nc(C)cc2C)nc1NCc1ccccc1 | inconclusive: -87.6%
30 | C/C(=N\Nc1nncc2ccccc12)c1cccc(OC(F)F)c1 | inconclusive: -67.6%
31 | CC(C)(C)c1ccc(OCC(O)CN2CCc3ccccc3C2)cc1 (stereo not given) | inactive: -13.6%
32 | COC(=O)CS(=O)(=O)c1cccc2cccnc12 | inconclusive: -56.6%
33 | O=C(CNS(=O)(=O)c1ccc(F)cc1)N1CCN(c2ccc(F)cc2)CC1 | inconclusive: -50.1%
34 | O=C(NCC1CCCO1)c1cc2c([nH]c3ccccc32)c(-c2cccc(Br)c2)n1 (stereo not given) | inconclusive: -199%
35 | COc1ccc(NCC(=O)n2c(C)c(C)c3ccccc32)cc1OC | inconclusive: -30.6%
36 | FC(F)(F)c1nnc2c(Sc3ccc(Cl)cc3)nc3ccccc3n12 | inconclusive: -149%
37 | CCOc1ccc2nc(NC(=O)C3CCCN(S(=O)(=O)c4cccc5nonc45)C3)sc2c1 (stereo not given) | inactive: 8.93%
38 | CCOc1ccccc1NC(=O)NCc1cccnc1 | inactive: 8.46%
39 | CCC(c1nnc(SCC(=O)Nc2ccc(N3CCOCC3)cc2)n1Cc1ccccc1)N(C)C (stereo not given) | inconclusive: -182%
40 | COc1ccccc1NC(=O)C1CCCN(S(=O)(=O)c2ccc3c(c2)CC(C)N3C(C)=O)C1 (stereo not given) | inactive: -3.9%
41 | CN(C)/C=C/C(=O)c1nnn(C2CCCCC2)c1NC1CCCCC1 | inconclusive: -35.1%
42 | CCOC(=O)/C(C#N)=C/Nc1ccsc1C(=O)OC | inconclusive: -59%
43 | CNC(=S)N1CCN(c2ccc(Cl)c(Cl)c2)CC1 | inactive: -9.14%
44 | Cc1ccc(-n2c(CCC(=O)O)ccc2-c2cccs2)cc1C | inactive: 15.5%
45 | CCOC(=O)c1sc(N2C(=O)C(O)=C(C(=O)c3ccco3)C2c2cccc(Cl)c2)nc1C (stereo not given) | inactive: 7.43%
46 | Cc1noc(NS(=O)(=O)c2ccc(N/C=C\C(=O)c3ccncc3)cc2)c1C | inconclusive: -133%
47 | O=C(COC(=O)c1ccc2c(c1)OCCO2)Nc1cc(Cl)ccc1Cl | inactive: 2.15%
48 | Cc1ccccc1N1CC(C(=O)Nc2ccncc2)CC1=O (stereo not given) | inconclusive: -32.2%
49 | CC1CN(S(=O)(=O)c2cccc(C(=O)NCc3ccco3)c2)CC(C)O1 (stereo not given) | inactive: 0.064%
50 | CC(=O)c1c(C)[nH]c(C(=O)OCc2cccc(C)c2)c1C | inconclusive: -75.8%
51 | COC(=O)c1cc(S(=O)(=O)N2CCN(c3ccc(C(C)=O)cc3)CC2)cn1C | inconclusive: -55.8%
52 | CC1(C)CC(=O)C(Sc2ccccc2)=C(O)C1 | inconclusive: -90.7%
53 | O=C(Nc1nnc(C2CC2)s1)c1ccncc1 | inactive: -4.51%
54 | O=[N+]([O-])c1ccc(-c2csc(N3CCc4ccccc4C3)n2)cc1 | inactive: -1.63%
55 | Cc1cnc(NC(=O)COc2cccc3c2OC(C)(C)C3)s1 | inactive: -5.35%

Some of these compounds in order of heavy-atom count, high to low.
Row | SMILES | inhibition
34 | O=C(NCC1CCCO1)c1cc2c([nH]c3ccccc32)c(-c2cccc(Br)c2)n1 (stereo not given) | inconclusive: -199%
51 | COC(=O)c1cc(S(=O)(=O)N2CCN(c3ccc(C(C)=O)cc3)CC2)cn1C | inconclusive: -55.8%
14 | CCN1CCN(c2cc3c(cc2F)c(=O)c(C(=O)O)cn3C2CC2)CC1 | inconclusive: -30.3%
35 | COc1ccc(NCC(=O)n2c(C)c(C)c3ccccc32)cc1OC | inconclusive: -30.6%
